Assay results published in paper PMC7544099.
Results are given in words; binding and its absence hold for the method and conditions named. Binding seen in cells or lysates may run through a third protein. These calls come from enrichment with a bait or labelling near it, and not all partners need be listed.

The chains behind the UniProt entries cited, without tags or fusion partners.
UniProt Q9Y3Z3: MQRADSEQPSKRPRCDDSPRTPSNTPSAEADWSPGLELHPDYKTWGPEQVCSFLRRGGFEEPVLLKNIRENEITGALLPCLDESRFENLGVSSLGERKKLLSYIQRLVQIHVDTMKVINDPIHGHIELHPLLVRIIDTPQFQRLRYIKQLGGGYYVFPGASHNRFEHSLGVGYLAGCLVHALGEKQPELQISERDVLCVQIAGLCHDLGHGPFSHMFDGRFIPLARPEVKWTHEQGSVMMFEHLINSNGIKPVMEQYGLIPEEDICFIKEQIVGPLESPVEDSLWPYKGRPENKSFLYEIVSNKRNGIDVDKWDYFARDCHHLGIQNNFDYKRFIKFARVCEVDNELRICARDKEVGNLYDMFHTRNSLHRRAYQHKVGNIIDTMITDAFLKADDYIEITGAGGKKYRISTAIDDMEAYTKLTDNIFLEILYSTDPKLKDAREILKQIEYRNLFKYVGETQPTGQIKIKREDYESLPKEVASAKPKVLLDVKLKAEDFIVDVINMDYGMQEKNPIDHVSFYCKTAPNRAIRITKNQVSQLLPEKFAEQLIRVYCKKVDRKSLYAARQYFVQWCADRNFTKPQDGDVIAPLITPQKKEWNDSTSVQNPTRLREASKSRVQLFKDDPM
UniProt P09715: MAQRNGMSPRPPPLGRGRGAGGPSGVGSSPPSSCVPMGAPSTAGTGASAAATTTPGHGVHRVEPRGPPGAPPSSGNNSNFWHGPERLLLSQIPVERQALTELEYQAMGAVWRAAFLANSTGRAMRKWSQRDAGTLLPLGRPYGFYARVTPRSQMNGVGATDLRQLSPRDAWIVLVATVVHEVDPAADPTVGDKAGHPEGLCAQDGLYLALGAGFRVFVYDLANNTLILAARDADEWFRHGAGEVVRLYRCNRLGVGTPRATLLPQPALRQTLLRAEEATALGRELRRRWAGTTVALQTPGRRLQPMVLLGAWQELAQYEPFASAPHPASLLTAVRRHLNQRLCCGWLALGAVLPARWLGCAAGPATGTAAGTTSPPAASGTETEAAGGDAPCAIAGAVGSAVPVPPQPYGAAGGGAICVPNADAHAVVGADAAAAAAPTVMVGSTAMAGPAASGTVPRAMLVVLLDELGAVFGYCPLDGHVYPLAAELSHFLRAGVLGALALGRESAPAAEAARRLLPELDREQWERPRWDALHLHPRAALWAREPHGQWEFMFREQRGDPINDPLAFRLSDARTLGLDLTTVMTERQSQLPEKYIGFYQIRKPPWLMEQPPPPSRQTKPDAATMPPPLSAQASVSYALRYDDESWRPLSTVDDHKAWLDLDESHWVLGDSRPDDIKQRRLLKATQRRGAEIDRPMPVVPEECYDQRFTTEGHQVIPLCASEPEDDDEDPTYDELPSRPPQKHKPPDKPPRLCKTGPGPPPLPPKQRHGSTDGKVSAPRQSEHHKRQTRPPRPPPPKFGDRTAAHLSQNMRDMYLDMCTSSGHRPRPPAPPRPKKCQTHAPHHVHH
UniProt P16790: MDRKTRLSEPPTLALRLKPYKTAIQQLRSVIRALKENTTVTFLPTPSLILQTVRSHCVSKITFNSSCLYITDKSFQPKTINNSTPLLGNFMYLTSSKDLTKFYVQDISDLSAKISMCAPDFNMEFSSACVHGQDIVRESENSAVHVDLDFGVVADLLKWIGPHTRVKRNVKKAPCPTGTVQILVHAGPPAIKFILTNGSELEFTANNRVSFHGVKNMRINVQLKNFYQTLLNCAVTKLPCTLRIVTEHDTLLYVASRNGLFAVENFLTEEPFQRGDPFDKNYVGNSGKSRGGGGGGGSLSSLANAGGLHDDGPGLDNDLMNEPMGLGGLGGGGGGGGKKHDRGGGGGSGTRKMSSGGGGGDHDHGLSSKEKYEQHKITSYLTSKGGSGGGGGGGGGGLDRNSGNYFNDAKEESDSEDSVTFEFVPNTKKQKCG
UniProt P09695: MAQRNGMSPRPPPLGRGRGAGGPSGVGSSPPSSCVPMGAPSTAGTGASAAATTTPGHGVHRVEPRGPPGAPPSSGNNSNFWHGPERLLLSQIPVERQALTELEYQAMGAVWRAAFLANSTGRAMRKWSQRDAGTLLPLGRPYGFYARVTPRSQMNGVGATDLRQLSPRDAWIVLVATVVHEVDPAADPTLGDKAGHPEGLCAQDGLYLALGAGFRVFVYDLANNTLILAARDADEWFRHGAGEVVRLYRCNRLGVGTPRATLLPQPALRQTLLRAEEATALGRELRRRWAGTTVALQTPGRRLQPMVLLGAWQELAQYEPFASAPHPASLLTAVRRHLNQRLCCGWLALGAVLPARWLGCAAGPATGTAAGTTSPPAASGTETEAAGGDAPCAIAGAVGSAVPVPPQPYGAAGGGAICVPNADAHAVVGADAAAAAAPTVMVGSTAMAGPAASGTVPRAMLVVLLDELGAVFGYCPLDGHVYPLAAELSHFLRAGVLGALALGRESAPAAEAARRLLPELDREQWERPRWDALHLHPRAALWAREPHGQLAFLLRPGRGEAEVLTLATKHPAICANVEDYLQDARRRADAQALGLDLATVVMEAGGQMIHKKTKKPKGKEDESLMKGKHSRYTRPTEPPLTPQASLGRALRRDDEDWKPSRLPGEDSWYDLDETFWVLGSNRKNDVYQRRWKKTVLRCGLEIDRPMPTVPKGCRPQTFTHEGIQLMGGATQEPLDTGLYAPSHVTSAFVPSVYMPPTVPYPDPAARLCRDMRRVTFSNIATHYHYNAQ

Molecular target: Sterile α motif (SAM) and histidine-aspartic acid domain (HD)-containing protein 1 (SAMHD1) (human (endogenous in HFFs)) (UniProt Q9Y3Z3)
Experiment: affinity purification with mass spectrometry; lysates of HFFs not infected or infected with AD169 (MOI 1 and MOI 3, 3 dpi) immunoprecipitated by protein A Sepharose beads with anti-SAMHD1 or anti-pT592-SAMHD1 Ab, rabbit IgG as control; LC-MS/MS, label-free quantification; fold change between the two pull-downs

| Substance | binding |
| --- | --- |
| IRS1 (from UniProt P09715 1-846) | binds |
| VPAP (from UniProt P16790 1-433) | binds |
| TRS1 (from UniProt P09695 1-788) | binds |
